According to PubChem BioAssay AID687031 (Broad Institute, 2013):
In all, about 1,400 compounds went through this assay and about 50 (4%) were called active.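 The calls were made as follows: active = fitted curve reaches 30% CPE protection at or below the top valid dose, with every test run called active; inconclusive = test runs disagree, some active and some not; inactive = every test run inactive, including effects in the wrong direction.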 This is one part of the list. Potency and affinity values are given separately.

Test: Dengue virus 2 cytopathic effect protection, dose response, BHK-21 cells, ATP luminescence, cherry-pick (AID 687031);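 also: 0% = infected DMSO wells and 100% = uninfected cell wells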
Conditions: BHK-21 DENV2 CPE protection, 5 d; at 19.5 µM (top of the series) unless noted

CPE protection (higher = active), inactive:
O=C(c1ccc(F)cc1)N1CCC(C(=O)N2CCCc3ccccc32)CC1 18.1%, CCOC(=O)C1CCCN(c2c(N3CCOCC3)c(=O)c2=O)C1 (configuration not stated) -3.97%, Cc1ccc(NC(=O)c2nc[nH]c2C(=O)N[C@@H](C)C(=O)OC(C)(C)C)cc1 2.06%, C/C=C/c1ccc([C@H]2[C@@H](CO)N3CCCCN(S(=O)(=O)c4ccccc4)C[C@@H]23)cc1 -29.9%, C[C@H](CCC(=O)O)[C@H]1CC[C@H]2[C@@H]3CC[C@@H]4C[C@H](O)CC[C@]4(C)[C@H]3C[C@H](O)[C@]12C -3.87%, COc1ccc([C@H]2C[C@@H](n3cc(C4CC4)nn3)[C@H](O)CN2Cc2cccs2)cc1 0.924% [at 10 µM], CCN(CC)C(=O)C1=C(C)N(CCCN2CCCC2=O)C(=O)C(CC(=O)NCC2CCCCC2)C1 (configuration not stated) 15.6%, Clc1cccc(C2=NOC(c3nnc(-c4ccccc4)o3)C2)c1 (configuration not stated) 5.72%, CCc1nc2ccc(C(=O)N(CC)CCN(C)C)cn2c1N(C)C(=O)c1cccc(OC)c1 -23.3%, Cc1cccc(N=[N+]([O-])c2cccc(C)n2)n1 -7.07%, N#C[C@@H]1[C@@H](c2ccc(-c3cccc(F)c3)cc2)[C@H](CO)N1c1nc(-c2ccccc2)cs1 -8.78%, CCCCCC(=O)NC1CCCCN(C)C1=O (configuration not stated) 19.9%, COc1ccc(S(=O)(=O)N2CCCCCC2)cc1NC(=O)Cc1cccc(C(F)(F)F)c1 -4.8%, Nc1nc2ccccc2n1Cc1ccc(Cl)c(Cl)c1 -19.4%, Cc1ccc(SC[C@H](Cc2ccccc2)N2CC[C@@H](C)CCC2=O)cc1 14.7%, Cc1cccc(CN2CCN(C(=O)c3cccc4ccccc34)CC2)c1 -3.17%, COc1ccc(CNC(=O)C2CC(c3ccc(C(F)(F)F)cc3)=NO2)cc1 (configuration not stated) -25.2%, Cc1noc(C)c1NC(=O)Nc1ccc2c(c1)C(=O)N([C@@H](C)CO)C[C@H](C)[C@@H](CN(C)C(=O)CCCN(C)C)OCCCC[C@@H](C)O2 15.7%, CC(C)(NC(=O)c1ccccc1)c1nc2ccccc2s1 4.35%, Cc1cc2oc3ccc(NCCCN4CCOCC4)cc3c(=O)c2cc1C 16.8%, Cc1c(CCC(=O)NCCCN2CCCC2=O)c(=O)oc2cc(O)ccc12 -6.14%, O=C(NCC1CC1)c1onc(CSc2ccc(F)c(F)c2)c1C(=O)NCC1CC1 10.7%
